Data as given in PubChem BioAssay AID743121 (NCATS, 2013)

- Assay: 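Partners whose loss is lethal together with topoisomerase I blockade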 (primary screen)
- Cells: MDA-MB-231 cells, a human breast cancer line
- Reagent: single siRNA against human genes, 20 nM siRNA (0.8 pmol per well)
- Timing: 120 h (drug added 48 h after transfection, read 72 h later)
- Challenge: camptothecin 20 nM (about EC30) for 72 h; vehicle 0.1% DMSO in parallel plates
- Measured: 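Cell viability by ATP luminescence (CellTiter-Glo) as % of non-targeting siRNA wells, and the log2 ratio of viability without drug over viability with camptothecin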
- Direction: log2 vehicle/camptothecin viability: higher = stronger sensitisation to camptothecin; viability with camptothecin and viability without drug: higher = more viable cells
- Rule for the call: 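Each gene scored by redundant siRNA activity (RSA) over its individual siRNA ratios; a gene is called active at p < 0.001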
Here is one part, drawn at random, of about 26,000 deposited reagents. 167 of them (0.63%) count as active. 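Calls are per gene from RSA p-values that are not deposited; an individual active-marked siRNA can sensitise only weakly.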 A number with no mark means an inactive call. The numbers tell different reagents against one gene apart.

| Target gene | reagent | log2 vehicle/camptothecin viability | viability with camptothecin (% of control) | viability without drug (% of control) |
| --- | --- | --- | --- | --- |
| TRIM46 | 1 | 0.167 | 55.1 | 61.9 |
| TRIM46 | 2 | -0.379 | 84 | 64.6 |
| TRIM46 | 3 | -0.481 | 56.8 | 40.7 |
| TRIM46 | 4 | 0.679 | 34.7 | 55.6 |
| PCDH20 | 1 | -0.324 | 84.2 | 67.3 |
| PCDH20 | 2 | -0.33 | 72.2 | 57.4 |
| PCDH20 | 3 | 0.478 | 70.4 | 98 |
| PCDH20 | 4 | -0.168 | 119 | 106 |
| CMYA5 | 1 | -0.434 | 89.7 | 66.4 |
| CMYA5 | 2 | 0.901 | 57.2 | 107 |
| CMYA5 | 3 | 0.00769 | 80.5 | 81 |
| CMYA5 | 4 | 0.0611 | 80.8 | 84.3 |
| HEPH | 1 | 0.305 | 60.1 | 74.2 |
| HEPH | 2 | -0.128 | 97.6 | 89.3 |
| HEPH | 3 | -0.174 | 67.3 | 59.7 |
| HEPH | 4 | -0.297 | 90.6 | 73.7 |
| EEF1E1 | 1 | -0.00179 | 107 | 106 |
| EEF1E1 | 2 | 0.0422 | 40.4 | 41.6 |
| EEF1E1 | 3 | -0.124 | 104 | 95.2 |
| EEF1E1 | 4 | -0.427 | 102 | 76 |
| HES4 | 1 | 0.072 | 91.9 | 96.6 |
| HES4 | 2 | 0.338 | 9.3 | 11.8 |
| HES4 | 3 | -0.0511 | 61.5 | 59.3 |
| HES4 | 4 | 0.487 | 21.3 | 29.9 |
| AKR1B10 | 1 | 0.125 | 61.3 | 66.8 |
| AKR1B10 | 2 | -0.356 | 103 | 80.7 |
| AKR1B10 | 3 | -0.237 | 85.2 | 72.3 |
| AKR1B10 | 4 | 0.354 | 41.4 | 52.9 |

Only “viability without drug (% of control)” (3 entries from above):
CMYA5 #4: 84.3
HEPH #1: 74.2
HEPH #2: 89.3
